Experimental data published in the supplement of paper PMC10032668.
This is one part of the list. The list holds hits alone, and they repeat only in part.

Protein sequences, listed by entry. Tags and fused reporters are not part of them.
IK, Q13123, UniProt Q13123, whole entry: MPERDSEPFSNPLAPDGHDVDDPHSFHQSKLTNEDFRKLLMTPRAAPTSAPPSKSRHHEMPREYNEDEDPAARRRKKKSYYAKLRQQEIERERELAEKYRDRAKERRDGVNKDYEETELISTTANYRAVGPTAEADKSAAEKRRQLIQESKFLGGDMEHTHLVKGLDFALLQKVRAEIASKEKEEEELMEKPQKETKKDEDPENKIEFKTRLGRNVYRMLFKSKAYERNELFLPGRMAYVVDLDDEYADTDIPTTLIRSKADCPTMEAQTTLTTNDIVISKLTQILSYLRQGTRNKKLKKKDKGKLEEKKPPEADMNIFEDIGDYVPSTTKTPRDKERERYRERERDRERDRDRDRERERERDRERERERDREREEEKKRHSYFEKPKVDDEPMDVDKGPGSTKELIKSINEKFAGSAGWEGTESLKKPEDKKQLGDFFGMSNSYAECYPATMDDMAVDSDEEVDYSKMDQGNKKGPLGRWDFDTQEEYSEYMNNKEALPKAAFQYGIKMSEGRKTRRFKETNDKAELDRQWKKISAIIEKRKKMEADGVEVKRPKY
RANBP2, P49792, UniProt P49792, whole entry: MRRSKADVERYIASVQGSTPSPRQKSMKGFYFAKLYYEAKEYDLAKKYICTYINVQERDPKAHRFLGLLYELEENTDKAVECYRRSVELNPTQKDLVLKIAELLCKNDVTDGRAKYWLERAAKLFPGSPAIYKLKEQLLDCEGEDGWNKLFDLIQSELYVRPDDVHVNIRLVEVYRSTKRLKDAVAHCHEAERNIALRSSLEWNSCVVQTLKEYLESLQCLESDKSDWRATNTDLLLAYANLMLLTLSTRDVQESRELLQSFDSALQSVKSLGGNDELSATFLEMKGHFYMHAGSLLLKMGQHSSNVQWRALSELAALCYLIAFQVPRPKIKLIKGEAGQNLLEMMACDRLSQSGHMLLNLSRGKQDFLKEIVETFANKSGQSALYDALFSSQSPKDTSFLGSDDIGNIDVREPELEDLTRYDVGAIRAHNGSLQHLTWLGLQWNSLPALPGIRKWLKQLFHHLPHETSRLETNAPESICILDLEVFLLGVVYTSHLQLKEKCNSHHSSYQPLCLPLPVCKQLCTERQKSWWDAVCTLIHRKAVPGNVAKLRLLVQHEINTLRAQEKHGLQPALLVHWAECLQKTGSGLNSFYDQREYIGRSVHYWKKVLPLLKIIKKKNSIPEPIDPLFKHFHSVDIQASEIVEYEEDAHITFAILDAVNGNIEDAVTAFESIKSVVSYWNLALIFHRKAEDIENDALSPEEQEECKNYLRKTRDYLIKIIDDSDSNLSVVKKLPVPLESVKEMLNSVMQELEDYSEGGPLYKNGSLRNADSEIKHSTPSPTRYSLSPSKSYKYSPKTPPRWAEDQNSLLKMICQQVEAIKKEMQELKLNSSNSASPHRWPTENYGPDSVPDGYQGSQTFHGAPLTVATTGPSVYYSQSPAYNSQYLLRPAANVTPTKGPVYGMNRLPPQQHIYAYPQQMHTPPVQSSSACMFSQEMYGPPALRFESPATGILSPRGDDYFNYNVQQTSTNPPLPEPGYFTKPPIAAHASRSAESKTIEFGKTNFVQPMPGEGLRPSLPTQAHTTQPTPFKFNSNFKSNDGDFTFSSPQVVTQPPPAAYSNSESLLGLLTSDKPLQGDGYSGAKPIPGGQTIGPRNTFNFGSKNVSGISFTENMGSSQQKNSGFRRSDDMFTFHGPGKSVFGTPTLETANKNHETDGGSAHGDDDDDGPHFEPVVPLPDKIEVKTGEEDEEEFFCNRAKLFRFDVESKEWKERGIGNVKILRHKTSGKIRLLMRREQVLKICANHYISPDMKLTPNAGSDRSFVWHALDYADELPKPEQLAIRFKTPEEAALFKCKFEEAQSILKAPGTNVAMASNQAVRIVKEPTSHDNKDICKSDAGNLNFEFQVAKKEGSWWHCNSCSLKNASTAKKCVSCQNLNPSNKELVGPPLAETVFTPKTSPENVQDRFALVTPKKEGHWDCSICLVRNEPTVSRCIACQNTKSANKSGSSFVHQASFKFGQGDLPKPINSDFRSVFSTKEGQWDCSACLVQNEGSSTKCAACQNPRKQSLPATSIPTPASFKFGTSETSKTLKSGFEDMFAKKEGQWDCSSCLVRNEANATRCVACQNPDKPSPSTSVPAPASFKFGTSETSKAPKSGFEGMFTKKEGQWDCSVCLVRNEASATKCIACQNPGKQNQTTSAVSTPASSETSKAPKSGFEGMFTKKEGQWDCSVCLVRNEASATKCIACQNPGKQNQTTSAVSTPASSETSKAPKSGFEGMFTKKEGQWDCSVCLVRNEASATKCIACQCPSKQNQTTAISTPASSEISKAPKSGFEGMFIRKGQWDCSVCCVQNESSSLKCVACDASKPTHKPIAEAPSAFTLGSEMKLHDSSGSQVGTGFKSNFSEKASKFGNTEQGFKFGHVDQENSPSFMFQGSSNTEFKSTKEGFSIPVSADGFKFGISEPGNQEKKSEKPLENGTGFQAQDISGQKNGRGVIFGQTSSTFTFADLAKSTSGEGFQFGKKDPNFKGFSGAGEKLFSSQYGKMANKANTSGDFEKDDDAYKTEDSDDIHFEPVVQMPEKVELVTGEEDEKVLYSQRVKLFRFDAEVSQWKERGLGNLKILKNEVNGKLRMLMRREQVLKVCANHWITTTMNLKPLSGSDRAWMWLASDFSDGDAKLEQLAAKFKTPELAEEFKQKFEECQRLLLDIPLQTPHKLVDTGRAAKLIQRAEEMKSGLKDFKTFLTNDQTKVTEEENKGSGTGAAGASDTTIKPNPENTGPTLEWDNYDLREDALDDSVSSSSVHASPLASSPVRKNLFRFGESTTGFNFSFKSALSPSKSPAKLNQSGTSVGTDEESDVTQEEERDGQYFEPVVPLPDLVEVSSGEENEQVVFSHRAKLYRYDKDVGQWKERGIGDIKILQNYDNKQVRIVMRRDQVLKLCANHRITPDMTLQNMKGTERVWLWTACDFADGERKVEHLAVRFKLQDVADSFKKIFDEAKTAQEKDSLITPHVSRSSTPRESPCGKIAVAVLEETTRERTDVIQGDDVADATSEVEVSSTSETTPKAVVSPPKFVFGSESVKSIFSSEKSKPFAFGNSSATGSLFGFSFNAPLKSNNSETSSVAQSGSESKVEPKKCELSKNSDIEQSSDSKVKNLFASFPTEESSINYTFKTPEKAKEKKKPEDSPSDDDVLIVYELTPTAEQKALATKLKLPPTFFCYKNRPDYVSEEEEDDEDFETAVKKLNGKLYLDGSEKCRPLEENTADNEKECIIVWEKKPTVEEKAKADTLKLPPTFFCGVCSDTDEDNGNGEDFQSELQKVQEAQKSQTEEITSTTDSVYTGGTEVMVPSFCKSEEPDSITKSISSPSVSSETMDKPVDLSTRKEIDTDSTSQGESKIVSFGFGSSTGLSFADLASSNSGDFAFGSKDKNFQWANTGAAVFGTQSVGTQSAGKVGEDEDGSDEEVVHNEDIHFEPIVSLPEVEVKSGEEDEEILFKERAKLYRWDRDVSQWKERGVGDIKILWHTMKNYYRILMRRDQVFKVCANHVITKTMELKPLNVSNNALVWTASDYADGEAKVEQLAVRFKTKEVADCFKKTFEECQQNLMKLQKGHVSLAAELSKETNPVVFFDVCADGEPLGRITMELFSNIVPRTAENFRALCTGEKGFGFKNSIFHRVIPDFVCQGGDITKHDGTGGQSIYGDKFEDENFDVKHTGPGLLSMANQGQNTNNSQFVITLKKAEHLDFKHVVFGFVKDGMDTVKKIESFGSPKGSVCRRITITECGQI
SNRPG, P62308, UniProt P62308, whole entry: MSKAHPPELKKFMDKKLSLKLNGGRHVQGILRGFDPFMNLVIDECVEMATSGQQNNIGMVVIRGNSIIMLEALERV
GSPT2, Q8IYD1, UniProt Q8IYD1, whole entry: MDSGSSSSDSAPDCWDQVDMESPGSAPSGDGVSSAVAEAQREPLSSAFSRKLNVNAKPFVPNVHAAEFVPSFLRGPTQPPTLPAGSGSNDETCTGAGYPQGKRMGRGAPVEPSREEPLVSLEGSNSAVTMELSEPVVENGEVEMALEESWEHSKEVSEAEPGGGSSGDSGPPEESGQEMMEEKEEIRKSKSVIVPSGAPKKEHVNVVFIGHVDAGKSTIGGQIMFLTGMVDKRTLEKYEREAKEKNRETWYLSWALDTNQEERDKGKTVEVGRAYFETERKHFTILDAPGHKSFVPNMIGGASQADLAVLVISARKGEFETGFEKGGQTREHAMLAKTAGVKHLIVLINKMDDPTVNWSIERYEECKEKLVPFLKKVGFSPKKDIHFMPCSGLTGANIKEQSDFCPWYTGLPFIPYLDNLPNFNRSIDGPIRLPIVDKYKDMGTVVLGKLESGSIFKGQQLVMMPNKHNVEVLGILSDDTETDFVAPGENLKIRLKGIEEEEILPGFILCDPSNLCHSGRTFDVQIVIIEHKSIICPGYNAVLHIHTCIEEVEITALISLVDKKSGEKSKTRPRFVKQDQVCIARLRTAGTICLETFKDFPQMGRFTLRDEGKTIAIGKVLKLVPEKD
PHAX, Q9H814, UniProt Q9H814, whole entry: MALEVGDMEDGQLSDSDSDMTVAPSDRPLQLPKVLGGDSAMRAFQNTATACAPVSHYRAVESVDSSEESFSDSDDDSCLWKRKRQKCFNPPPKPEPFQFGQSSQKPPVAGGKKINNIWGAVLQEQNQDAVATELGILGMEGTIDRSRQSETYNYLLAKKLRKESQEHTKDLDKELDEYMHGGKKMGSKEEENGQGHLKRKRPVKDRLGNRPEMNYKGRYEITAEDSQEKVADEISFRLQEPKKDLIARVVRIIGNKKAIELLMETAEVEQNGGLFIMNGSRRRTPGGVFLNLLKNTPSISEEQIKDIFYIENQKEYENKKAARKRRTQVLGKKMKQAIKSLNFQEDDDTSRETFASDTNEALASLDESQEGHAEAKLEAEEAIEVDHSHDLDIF
PRKAR2A, P13861, UniProt P13861, whole entry: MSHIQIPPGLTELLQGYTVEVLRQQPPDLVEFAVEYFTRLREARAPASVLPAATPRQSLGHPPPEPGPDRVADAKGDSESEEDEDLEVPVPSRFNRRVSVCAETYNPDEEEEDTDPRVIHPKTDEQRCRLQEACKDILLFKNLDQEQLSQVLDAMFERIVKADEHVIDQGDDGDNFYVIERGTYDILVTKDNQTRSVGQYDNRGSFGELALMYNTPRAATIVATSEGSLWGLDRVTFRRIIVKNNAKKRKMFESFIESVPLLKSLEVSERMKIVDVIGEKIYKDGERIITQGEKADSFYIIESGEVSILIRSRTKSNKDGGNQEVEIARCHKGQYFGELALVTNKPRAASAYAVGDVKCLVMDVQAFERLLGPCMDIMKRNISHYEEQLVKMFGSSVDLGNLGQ

What was measured:
Test in all cases: PRISMA enrichment of interactor (LFQ) in peptide spot vs all other peptide spots (log2 fold change); higher = stronger / more specific binding of the interactor to the peptide
ABCF3, Q9NUQ8 = target: ABCF3, Q9NUQ8
Description: (§1)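 PRISMA: 15-aa overlapping tiles (offset 8 aa) of 60 microproteins, plus SOS1/GLUT1 control peptides, were spot-synthesized on cellulose membranes in triplicate. Membranes were incubated with benzonase-treated HEK293T lysate, and bound proteins were identified by LC-MS/MS with LFQ. Enrichment is the log2 fold change of each protein in one spot versus all other spots. Only interactors passing the significance cutoff are listed.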

ACO2, Q99798 = target: ACO2, Q99798
Description: as §1

API5, Q9BZZ5 = target: API5, Q9BZZ5
Description: as §1

ARCN1, P48444 = target: ARCN1, P48444
Description: as §1

CPSF1, Q10570 = target: CPSF1, Q10570
Description: as §1

CWC22, Q9HCG8 = target: CWC22, Q9HCG8
Description: as §1

DTYMK, P23919 = target: DTYMK, P23919
Description: as §1

EARS2, Q5JPH6 = target: EARS2, Q5JPH6
Description: as §1

FBXO21, O94952 = target: FBXO21, O94952
Description: as §1

HMGCL, P35914 = target: HMGCL, P35914
Description: as §1

IK, Q13123 = target: IK, Q13123
Description: as §1

KNOP1, Q1ED39 = target: KNOP1, Q1ED39
Description: as §1

MGA, Q8IWI9 = target: MGA, Q8IWI9
Description: as §1

MUC19, Q7Z5P9 = target: MUC19, Q7Z5P9
Description: as §1

PDIA5, Q14554 = target: PDIA5, Q14554
Description: as §1

PPP6R3, Q5H9R7 = target: PPP6R3, Q5H9R7
Description: as §1

RANBP2, P49792 = target: RANBP2, P49792
Description: as §1

SNRPG, P62308 = target: SNRPG, P62308
Description: as §1

STMN1, P16949 = target: STMN1, P16949
Description: as §1

YWHAZ, P63104 = target: YWHAZ, P63104
Description: as §1

BCKDK, O14874 = target: BCKDK, O14874
Description: as §1

CLTA, P09496 = target: CLTA, P09496
Description: as §1

CMC2, Q9NRP2 = target: CMC2, Q9NRP2
Description: as §1

DDX49, Q9Y6V7 = target: DDX49, Q9Y6V7
Description: as §1

DSP, P15924 = target: DSP, P15924
Description: as §1

EMG1, Q92979 = target: EMG1, Q92979
Description: as §1

FAM168A, Q92567 = target: FAM168A, Q92567
Description: as §1

FOXO3, O43524 = target: FOXO3, O43524
Description: as §1

GSPT2, Q8IYD1 = target: GSPT2, Q8IYD1
Description: as §1

MTCH2, Q9Y6C9 = target: MTCH2, Q9Y6C9
Description: as §1

NCOA5, Q9HCD5 = target: NCOA5, Q9HCD5
Description: as §1

P4HB, P07237 = target: P4HB, P07237
Description: as §1

PHAX, Q9H814 = target: PHAX, Q9H814
Description: as §1

PPM1G, O15355 = target: PPM1G, O15355
Description: as §1

PRKAR2A, P13861 = target: PRKAR2A, P13861
Description: as §1

SREK1, Q8WXA9 = target: SREK1, Q8WXA9
Description: as §1

ZC3H15, Q8WU90 = target: ZC3H15, Q8WU90
Description: as §1

Row | Binder | PRISMA enrichment of interactor (log2) (ABCF3, Q9NUQ8) | PRISMA enrichment of interactor (log2) (ACO2, Q99798) | PRISMA enrichment of interactor (log2) (API5, Q9BZZ5) | PRISMA enrichment of interactor (log2) (ARCN1, P48444) | PRISMA enrichment of interactor (log2) (CPSF1, Q10570) | PRISMA enrichment of interactor (log2) (CWC22, Q9HCG8) | PRISMA enrichment of interactor (log2) (DTYMK, P23919) | PRISMA enrichment of interactor (log2) (EARS2, Q5JPH6) | PRISMA enrichment of interactor (log2) (FBXO21, O94952) | PRISMA enrichment of interactor (log2) (HMGCL, P35914) | PRISMA enrichment of interactor (log2) (IK, Q13123) | PRISMA enrichment of interactor (log2) (KNOP1, Q1ED39) | PRISMA enrichment of interactor (log2) (MGA, Q8IWI9) | PRISMA enrichment of interactor (log2) (MUC19, Q7Z5P9) | PRISMA enrichment of interactor (log2) (PDIA5, Q14554) | PRISMA enrichment of interactor (log2) (PPP6R3, Q5H9R7) | PRISMA enrichment of interactor (log2) (RANBP2, P49792) | PRISMA enrichment of interactor (log2) (SNRPG, P62308) | PRISMA enrichment of interactor (log2) (STMN1, P16949) | PRISMA enrichment of interactor (log2) (YWHAZ, P63104) | PRISMA enrichment of interactor (log2) (BCKDK, O14874) | PRISMA enrichment of interactor (log2) (CLTA, P09496) | PRISMA enrichment of interactor (log2) (CMC2, Q9NRP2) | PRISMA enrichment of interactor (log2) (DDX49, Q9Y6V7) | PRISMA enrichment of interactor (log2) (DSP, P15924) | PRISMA enrichment of interactor (log2) (EMG1, Q92979) | PRISMA enrichment of interactor (log2) (FAM168A, Q92567) | PRISMA enrichment of interactor (log2) (FOXO3, O43524) | PRISMA enrichment of interactor (log2) (GSPT2, Q8IYD1) | PRISMA enrichment of interactor (log2) (MTCH2, Q9Y6C9) | PRISMA enrichment of interactor (log2) (NCOA5, Q9HCD5) | PRISMA enrichment of interactor (log2) (P4HB, P07237) | PRISMA enrichment of interactor (log2) (PHAX, Q9H814) | PRISMA enrichment of interactor (log2) (PPM1G, O15355) | PRISMA enrichment of interactor (log2) (PRKAR2A, P13861) | PRISMA enrichment of interactor (log2) (SREK1, Q8WXA9) | PRISMA enrichment of interactor (log2) (ZC3H15, Q8WU90)
1 | GRTEFWPHCEERQKP [RP11-644F5.11] | 8.91 | 4.7 | 4.87 | 4.38 | 6.87 | 5.17 | 5.77 | 6.32 | 3.85 | 5.33 | 6.98 | 4.88 | 3.85 | 7.49 | 6.14 | 6.04 | 5.39 | 7.28 | 5.22 | 4.8 |  |  |  |  |  |  |  |  |  |  |  |  |  |  |  |  | 
2 | DFLTSSPDHREFLST [NAV2-AS2_2] | 3.89 |  |  |  |  |  |  |  |  |  |  |  |  |  |  |  |  |  |  |  | 4.7 | 5.59 | 6.82 | 5.27 | 4.69 | 5.21 | 6.81 | 4.52 | 4.86 | 4.88 | 4.24 | 4.59 | 9.47 | 5.06 | 4.22 | 4.63 | 4.73
